Assay results reported in PubChem BioAssay AID2685 (National Center for Advancing Translational Sciences (NCATS), 2010).
The list shows a part of the results. Further columns of the screen follow, without active or inactive calls. The list favours compounds with an active or inconclusive main result. The note in brackets gives the kind of curve behind each potency; many fits are weak.

Test: qHTS Assay for Lipid Storage Modulators in Drosophila S3 Cells;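 on cell number change: cells counted by Cell Tracker Red CMTPX staining in the red channel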
Conditions: BODIPY lipid droplet fluorescence, 18-24 h; for cell number change: measured here: cell count max response, cells fed with added oleic acid
In short: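 Drosophila S3 cells got compounds at several concentrations plus oleic acid (400 uM solution). Laser-scanning cytometry with 488 nm excitation read lipid droplets at 500-530 nm and cells at 575-640 nm. Percent activity was relative to 20 uM Triacsin C.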

[1] = measured here: lipid fluorescence (Fed channel) AC50, cells fed with added oleic acid
[2] = measured here: cell number channel AC50, cells fed with added oleic acid

Row | Compound | cell number change [%] | AC50 [1] | AC50 [2]
1 | O=C(NCCOc1ccc(F)cc1)C1CCC(=O)N(CCc2ccccn2)C1 (stereo not given) | 1.49 | 6.51 µM [falling, single point] | 
2 | N#C/C(=C\c1ccco1)C(=O)Nn1cnnc1 | 120 |  | 14.6 µM [rising, partial curve]
3 | Cc1cccnc1NC(=O)c1ccc(Cl)c(S(=O)(=O)N2CCCCC2)c1 |  | 0.00461 µM [rising, full curve, poor fit] | 0.0259 µM [rising, full curve, poor fit]
4 | O=C(NCc1ccccn1)C1CCN(S(=O)(=O)c2ccccc2C(F)(F)F)CC1 | 2.64 | 0.103 µM [rising, full curve, poor fit] | 
5 | COc1cc2c(cc1OC)CN(c1ccc(C(F)(F)F)cn1)CC2 | -1.59 | 0.651 µM [falling, partial curve, poor fit] | 
6 | C/C(=N/NC(=O)c1cc2ccccc2cc1O)C1C(=O)c2ccccc2C1=O | 14.8 | 7.31 µM [falling, partial curve] | 
7 | Cc1ccc(S(=O)(=O)N(C)C)cc1NC(=O)CN1CCN(Cc2ccccc2)CC1 | -13.3 |  | 4.11 µM [falling, single point]
8 | COc1ccc(CNC(=O)COC(=O)CCCOc2ccc(Cl)cc2Cl)cc1 | 11.2 |  | 0.58 µM [rising, single point]
9 | CN(C)/C=C/c1c([N+](=O)[O-])c2ccc(O)cc2n1-c1ccccc1 | -39.7 | 18.4 µM [falling, single point] | 29.1 µM [falling, single point]
10 | Cn1c(=O)c2c(nc(CN3CCCCC3)n2CCc2ccccc2)n(C)c1=O | 14.5 |  | 
11 | Cc1ccc(CNC(=O)C(=O)NCCC2CCCCN2S(=O)(=O)c2ccccc2)cc1 (stereo not given) | -35.2 | 29.1 µM [falling, partial curve, poor fit] | 
12 | COC(=O)c1sc(N2C(=O)C(=O)/C(=C(/O)c3ccccc3)C2c2ccco2)nc1C (stereo not given) | -7.84 | 0.103 µM [falling, full curve, poor fit] | 
13 | COC(=O)c1cn(C(=O)/C=C/c2ccc(OC)c(OC)c2)c2ccccc12 | 89.2 |  | 29.1 µM [rising, single point]
14 | CCCn1c(=O)c2c(c3ccccc31)OC(C)C(=O)N2 (stereo not given) |  |  | 2.31 µM [rising, partial curve]
15 | CCOC(=O)C1CCCN(S(=O)(=O)Cc2ccc(Cl)cc2)C1 (stereo not given) | -27.9 |  | 0.0731 µM [falling, full curve, poor fit]
16 | CC1CN(CC(O)COc2ccccc2C(C)(C)C)CC(C)O1 (stereo not given) |  |  | 6.51 µM [falling, single point]

A second format for 4 compounds above:

| Row | Compound | cell number change [%] | AC50 [1] | AC50 [2] |
| --- | --- | --- | --- | --- |
| 4 | O=C(NCc1ccccn1)C1CCN(S(=O)(=O)c2ccccc2C(F)(F)F)CC1 | 2.64 | 0.103 µM [rising, full curve, poor fit] |  |
| 5 | COc1cc2c(cc1OC)CN(c1ccc(C(F)(F)F)cn1)CC2 | -1.59 | 0.651 µM [falling, partial curve, poor fit] |  |
| 6 | C/C(=N/NC(=O)c1cc2ccccc2cc1O)C1C(=O)c2ccccc2C1=O | 14.8 | 7.31 µM [falling, partial curve] |  |
| 7 | Cc1ccc(S(=O)(=O)N(C)C)cc1NC(=O)CN1CCN(Cc2ccccc2)CC1 | -13.3 |  | 4.11 µM [falling, single point] |
